# Experimental data published in PubChem BioAssay AID743266 (National Center for Advancing Translational Sciences (NCATS), 2014).
# By UniProt entry, the sequences of proteins in these tests, tags left out. Where a name states a change or a piece, a line headed by the entry shows the natural chain unless it says otherwise.
# UniProt Q03431: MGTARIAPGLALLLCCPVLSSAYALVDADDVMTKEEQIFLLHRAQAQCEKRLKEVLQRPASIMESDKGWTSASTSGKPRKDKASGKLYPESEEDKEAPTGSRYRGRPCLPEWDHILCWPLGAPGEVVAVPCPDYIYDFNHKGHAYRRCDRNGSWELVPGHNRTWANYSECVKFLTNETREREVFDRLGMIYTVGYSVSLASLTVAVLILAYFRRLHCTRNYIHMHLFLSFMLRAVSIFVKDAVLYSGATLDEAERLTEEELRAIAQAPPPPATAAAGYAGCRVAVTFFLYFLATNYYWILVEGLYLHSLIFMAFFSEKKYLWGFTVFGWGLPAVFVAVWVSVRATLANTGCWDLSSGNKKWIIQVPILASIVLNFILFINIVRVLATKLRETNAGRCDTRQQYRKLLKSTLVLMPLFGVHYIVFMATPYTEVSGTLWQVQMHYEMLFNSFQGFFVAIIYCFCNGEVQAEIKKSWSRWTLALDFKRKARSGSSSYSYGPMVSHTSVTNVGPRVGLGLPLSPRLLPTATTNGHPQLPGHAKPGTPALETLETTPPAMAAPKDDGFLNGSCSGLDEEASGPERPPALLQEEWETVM
# “And” between values parts separate entries of the source, which are not always exact repeats. Equal values may be shown once. Out of some 410,000 compounds screened, about 310 (0.076%) were called active. This list was built around the results that the source calls inconclusive (neither active nor inactive); the mix of calls is not that of the screen. Calls follow the shape of the dose curve; as a rule, active = well fitted activation curve with a large enough effect; inconclusive = small, poorly fitted or top-dose-only effect, or another doubt; inactive = no such curve, though single readings can be large or run the other way. A potency beside an inconclusive call is a rough fit, not a confirmed value.
# Molecular target: Parathyroid hormone/parathyroid hormone-related peptide receptor (Homo sapiens) (UniProt Q03431)
# Assay: qHTS for PTHR1 Agonists: Primary Screen; also: nearly all actives have a fitted effect of over 55% in size
# Details: HEK293 GP2 PTHR1 cells, GloSensor cAMP luminescence, 1 h; activation: at 115 µM (top of the series) unless noted; series mostly up to 115 µM
# Method in brief: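 HEK-293-derived GP2 cells expressing PTHR1 and a GloSensor cAMP reporter, 3,000/well, plated overnight, given luciferin plus IBMX (each 0.5 mM as added) for 1 h at 37 °C, then compound for 1 h at 37 °C. Luminescence was read after 15 min at room temperature.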
# Potency is read from the fitted curve at half-maximal effect.
SMILES,activation,Potency
COc1ccc(N2CCN(S(=O)(=O)c3ccc(-c4cnc(C5CC5)o4)cc3)CC2)cc1,inconclusive: 86.8% [activator],–
CC1=C(C(=O)Nc2ccccc2C(=O)NCCCN2CCN(C)CC2)SCCO1,–,"inconclusive: 14.1 µM [activator, partial curve]"
COc1ccc(OCC(=O)Nc2ccc3nn(-c4ccc(OC)cc4)nc3c2)cc1,–,"inconclusive: 50.1 µM [activator, partial curve, poor fit]"
Cc1ccc(S(=O)(=O)N2CCN(C(=O)CSc3n[nH]c(N)n3)CC2)c(C)c1,inconclusive: 37.5% [activator],–
COc1ccc(-c2cncc3nccn23)cc1OC,–,inactive
Cc1cc(C)cc(N(C(=O)c2sc(C)nc2C)C(C(=O)NCc2ccco2)c2ccccc2)c1 (configuration not stated),–,inactive
CCNC(=O)C1(C)CCCN(C(=O)c2nc(C)oc2C)C1 (configuration not stated),–,"inconclusive: 89.1 µM [activator, partial curve, poor fit]"
CCCCn1c(N)c(N(CC(C)C)C(=O)C2CCCO2)c(=O)[nH]c1=O (configuration not stated),–,"inconclusive: 126 µM [activator, single point]"
COc1ccc(/C=C/C(=O)Nc2cc(C)nn2-c2nc3ccccc3[nH]2)cc1,–,"inconclusive: 100 µM [activator, single point]"
O=C(NCCc1ccccc1)C1CCC(CNS(=O)(=O)c2cccs2)CC1 (configuration not stated),–,inactive
Cc1cc(C(=O)C(=O)Nc2nncs2)c(C)n1-c1ccc(Cl)cc1,–,inactive
COc1ccc(C(=O)Nc2c(Cl)cc(Cl)cc2C(=O)NCCN2CCOCC2)cc1,–,"inconclusive: 8.91 µM [activator, single point]"
N#CC(c1cccc(Cl)c1)c1ccc2c(C(F)(F)F)cc(C(F)(F)F)nc2n1 (configuration not stated),–,inactive
O=C(Cn1cnc([N+](=O)[O-])c1)NCCc1ccccc1,–,"inconclusive: 3.84 µM [activator, partial curve]"
CCn1cc(S(=O)(=O)NCc2ccccc2Br)cn1,–,"inconclusive: 44.7 µM [activator, partial curve, poor fit]"
O=C(CCN1C(=O)C2C3C=CC(C3)C2C1=O)N1CCN(c2ccccc2Cl)CC1 (configuration not stated),–,inactive
CCOc1ccc(-n2c(=O)c3c(C)c(C(=O)N(C)C)sc3n(Cc3cc(C)ccc3C)c2=O)cc1,–,"inconclusive: 126 µM [activator, single point]"
Cc1ccc(Nc2nc(C(=O)N3CCC(C(=O)NCCN4CCOCC4)CC3)cs2)cc1,inconclusive: 31% [activator] [at 57.5 µM],–
CC(=C/C(=O)O)/C=C/c1ccco1,–,"inconclusive: 126 µM [activator, single point]"
CC(=O)Nc1cc(-c2nn(C)c(=O)c3ccccc23)ccc1N1CCCCC1,–,"inconclusive: 12.6 µM [activator, partial curve, poor fit]"
COc1cc(NC(=O)CC[C@H]2O[C@@H](n3cnc4c(NC(=O)c5ccccc5)ncnc43)[C@H](O)[C@@H]2O)cc(OC)c1OC,–,inactive
CSc1ncc(Cl)c(C(=O)NCc2ccc3c(c2)OCO3)n1,–,"inconclusive: 39.8 µM [activator, single point]"
Cc1cc(NC(=O)c2cc(-c3cccs3)on2)no1,–,"inconclusive: 1.58 µM [activator, partial curve, poor fit]"

SMILES,activation,Potency
COc1ccc(S(=O)(=O)Nc2cccc(C(C)=O)c2)cc1Br,inconclusive: -75.9% [activator],–
CC1CCCC(C)N1CCCNC(=O)C1CCCN(c2ncnc3c2nc2n3CCCCC2)C1 (configuration not stated),–,"inconclusive: 126 µM [activator, single point]"
COc1ccc(NC(=O)CSc2n[nH]c(N)n2)cc1OC,–,"inconclusive: 100 µM [activator, partial curve, poor fit]"
Cc1cccc(-n2c(C)cc(/C=N\NC(=O)c3ccco3)c2C)c1,–,inactive
Cc1ccc(C(=O)C2=C(O)C(=O)N(Cc3ccccc3)C2c2cccnc2)o1 (configuration not stated),–,inactive
COC(=O)c1ccccc1NC(=O)C1CCCN(c2nnc(C)c3c(C)n(-c4ccccc4)nc23)C1 (configuration not stated),–,"inconclusive: 126 µM [activator, single point]"
O=C(CCc1ccccc1)N[C@@H]1c2ccccc2CC[C@H]1OCc1ccccc1,–,"inconclusive: 112 µM [activator, single point]"
Cn1ncc([N+](=O)[O-])c1C(=O)NC1CCCCC1,–,"inconclusive: 141 µM [activator, single point]"
COC(=O)c1ccc2c(=O)n(CCCCCC(=O)N3CCN(c4ccc(Cl)cc4)CC3)c(=O)[nH]c2c1,inconclusive: 43.7% [activator],–
CCc1ccc(-n2nc(CO)c(C(=O)NC)n2)cc1,–,inactive
CN(C1CCCCC1)S(=O)(=O)c1ccc(NC(=O)c2ccco2)cc1,–,"inconclusive: 4.47 µM [activator, full curve, poor fit]"
CCN1C(=O)[C@@H]2[C@@H](c3ccc(-c4ccc(F)cc4)c(OC)c3)N3CCCC[C@@]3(C(=O)OC)[C@@H]2C1=O,–,inactive
c1ccc(NNC2=NCCCCC2)cc1,–,"inconclusive: 100 µM [activator, partial curve, poor fit]"
CCCc1cc(=O)[nH]c(N2CCN(Cc3ccc4c(c3)OCO4)CC2)n1,–,"inconclusive: 50.1 µM [activator, partial curve, poor fit]"
CCOc1ccc(-c2nonc2NC(=O)c2oc3ccc(CC)cc3c2C)cc1,inconclusive: -23.9% [activator],–
C[C@H](CO)N1C[C@H](C)[C@@H](CN(C)S(=O)(=O)c2ccc(Cl)cc2)Oc2ccc(NS(=O)(=O)c3ccccc3)cc2CC1=O,inconclusive: 36.8% [activator],–
Cc1cccc(C)c1NC(=O)CSc1nnc(-c2ccco2)c(-c2ccco2)n1,–,inactive
O=C1N/C(=C\c2ccccc2)c2ccccc21,–,"inconclusive: 39.8 µM [activator, single point]"
Cc1nn(C(C)C(=O)Nc2ccccc2C(F)(F)F)c(=O)c2c1sc1ccccc12 (configuration not stated),–,"inconclusive: 112 µM [activator, single point]"
CC(C)c1ccc(N(CC(=O)O)S(=O)(=O)c2ccc3[nH]c(=O)c(=O)[nH]c3c2)cc1,–,"inconclusive: 158 µM [activator, single point]"
CCn1c(=O)c(C(=O)NCCN2CCCCC2)c(O)c2ccccc21,–,inactive
CCNC(=O)CC(=O)Nc1ccccc1C(=O)O,–,"inconclusive: 39.8 µM [activator, single point]"
CN1CCCC(OC(=O)COc2ccccc2)C1 (configuration not stated),–,"inconclusive: 5.01 µM [activator, full curve]"

# Part of the list above, set out differently:
SMILES	activation	Potency
Cc1ccc(C(=O)C2=C(O)C(=O)N(Cc3ccccc3)C2c2cccnc2)o1 (configuration not stated)	–	inactive
COC(=O)c1ccccc1NC(=O)C1CCCN(c2nnc(C)c3c(C)n(-c4ccccc4)nc23)C1 (configuration not stated)	–	inconclusive: 126 µM [activator, single point]
O=C(CCc1ccccc1)N[C@@H]1c2ccccc2CC[C@H]1OCc1ccccc1	–	inconclusive: 112 µM [activator, single point]

# Carrying on:

SMILES,activation,Potency
Cc1nn2c(C)c(C(=O)NCCc3ccccc3)cnc2c1-c1ccccc1,–,"inconclusive: 141 µM [activator, single point]"
COc1ccc(Cl)cc1NC(=O)COC(=O)CCNC(C)=O,inconclusive: 32% [activator],–
Cc1ccc(Nc2nc(N)nc(CSc3nc4ccccc4s3)n2)cc1,–,"inactive and inconclusive: 35.5 µM [activator, single point]"
CC(C)C[C@H]1CNC(=O)C(=O)N1CC1CCN(CCC(C)c2ccccc2)CC1 (some centres not stated),inconclusive: 31.3% [activator],–
O=C(CCc1ccccc1)NC1CC(=O)N(c2cccc(F)c2)C1 (configuration not stated),–,inactive
Cc1ccc(S(=O)(=O)Nc2ccccc2N(C)S(=O)(=O)c2ccc(C)cc2)cc1,–,inactive
COC(=O)c1ccc(C(=O)O)nc1,–,"inconclusive: 126 µM [activator, single point]"
CC1(OC(=O)CCc2ccccc2)C(=O)C=C2C=C(c3ccc(C#N)cc3)N(c3ccccc3)C=C2C1=O (configuration not stated),–,"inconclusive: 50.1 µM [activator, partial curve, poor fit]"
CC1C(=O)CCN(C(C)C)C1C (configuration not stated),–,"inconclusive: 35.5 µM [activator, partial curve, poor fit]"
CCCCN(CCCC)S(=O)(=O)c1ccc(NS(=O)(=O)c2ccc(NC(C)=O)cc2)cc1,–,"inconclusive: 3.98 µM [activator, full curve, poor fit]"
CCCCSc1nc2c(cnn2-c2ccc(Cl)cc2)c(=O)[nH]1,–,inactive
COc1cc(/C=C/C(=O)C2C(=O)C=C(C)OC2=O)cc(OC)c1O (configuration not stated),–,inactive
CCn1c(O)c(N=NC2=NC(=O)CS2)c2cc(C)ccc21,–,"inconclusive: 3.55 µM [activator, single point]"
COC(=O)c1cc2nc(-c3ccccc3)cc(C(F)(F)F)n2n1,–,"inconclusive: 5.62 µM [activator, single point]"
Fc1ccccc1CSc1nnc(-c2cccnc2)o1,–,inactive
COC(=O)CCNc1ccc2c(c1)OCCO2,–,"inconclusive: 11.2 µM [activator, partial curve, poor fit]"
CCC(C)(C)n1nnnc1C(c1ccc2ncccc2c1)N1CCN(c2nc3ccccc3s2)CC1 (configuration not stated),–,"inconclusive: 0.708 µM [activator, full curve, poor fit]"
Cc1cc(C(=O)NNS(=O)(=O)c2ccc(C(C)(C)C)cc2)nn1C(C)(C)C,–,"inconclusive: 35.5 µM [activator, partial curve, poor fit]"
COc1cc(C(=O)NNC(=O)CCOc2cccc(Br)c2)cc(OC)c1OC,inconclusive: 38.1% [activator],–
Cc1ccc(Cn2ncc3c(N4CCN(CC#N)CC4)ncnc32)cc1,inconclusive: -48.1% [activator],–
CN1CCN(NC(=O)C23CC4CC(CC(C4)C2)C3)CC1,–,"inconclusive: 56.2 µM [activator, partial curve, poor fit]"
